Test results: the supplement of paper PMC11006884
Only a part is listed here, and it is no random draw.

compound: COC(=O)C#Cc1ccccc1 [methyl 3-phenylpropiolate]; test: log2 ratio of iodoacetamide-alkyne labeling of the cysteine site, DMSO over compound (competition); higher = stronger covalent engagement of the cysteine by the compound, active = 1 or more; details: 500 µM; treatment time 1 h; system: HEK293T cell lysate
Summary of the method: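 The log2 competition ratio per cysteine is defined as mean reporter intensity in control channels over mean reporter intensity in compound channels. Lysate from HEK293T cells (2 mg/mL) received electrophile (500 µM) or vehicle for 1 h at ambient temperature, followed by iodoacetamide alkyne for 1 h. Samples were clicked to sCIP-TMT reagents, pooled, trypsin-digested overnight at 37 °C, streptavidin-enriched, acid-eluted and run on Orbitrap Eclipse LC-MS/MS with FAIMS, with quantification in FragPipe. Three replicates with duplicate channels were used, and any cysteine quantified in only one replicate was excluded.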

log2 ratio of iodoacetamide-alkyne labeling, inactive:
NCAPG C751 (UniProt Q9BPX3) 0.416, USP28 C1058 (UniProt Q96RU2) 0.502, RANBP9 C678 (UniProt Q96S59) 0.124, IWS1 C749 (UniProt Q96ST2) 0.712, ZFR C812 (UniProt Q96KR1) 0.28, NEK1 C276 (UniProt Q96PY6) 0.241, UniProt Q96RR1_C289 -0.209, PPP1R10 C48 (UniProt Q96QC0) 0.219, DOCK7 C457 (UniProt Q96N67) 0.309, LGMN C219 (UniProt Q99538) 0.865, EHMT2 C617 (UniProt Q96KQ7) 0.759, NGLY1 C197 (UniProt Q96IV0) 0.0457, ELAC2 C441 (UniProt Q9BQ52) 0.346, MYBBP1A C942 (UniProt Q9BQG0) 0.523, TUBA1C C295 (UniProt Q9BQE3) 0.453, TXN2 C90 (UniProt Q99757) 0.721, FUBP3 C310 (UniProt Q96I24) 0.26, SPEN C1066 (UniProt Q96T58) 0.234, MYBBP1A C678 (UniProt Q9BQG0) -0.109, MCCC1 C509 (UniProt Q96RQ3) 0.00784, RUFY1 C603 (UniProt Q96T51) 0.209, OSBPL9 C720 (UniProt Q96SU4) -0.0484, RSF1 C944 (UniProt Q96T23) 0.231, PIP5K1A C480 (UniProt Q99755) 0.429, CCT7 C158 (UniProt Q99832) 0.152, ADO C239 (UniProt Q96SZ5) 0.212, UHRF1 C759 (UniProt Q96T88) 0.107, STRBP C195 (UniProt Q96SI9) 0.3, TUBA1C C376 (UniProt Q9BQE3) 0.579, TTC1 C28 (UniProt Q99614) 0.272, NUP88 C561 (UniProt Q99567) 0.386, DDX50 C242 (UniProt Q9BQ39) 0.0336, FAM118B C93 (UniProt Q9BPY3) 0.0168, ZFR C899 (UniProt Q96KR1) 0.434, SRPK1 C356 (UniProt Q96SB4) 0.281, CNN2 C164 (UniProt Q99439) 0.574, DNAJC7 C7 (UniProt Q99615) 0.0737
